According to publication PMC10881024:
No constants are given. Whether binding was seen depends on the method and setting. Tags and fused reporters may be left off the sequences shown.

Sequences of proteins named here, by UniProt entry; tags and fusion partners are left off. Residues count along the entry.
UniProt Q8IYV9, residues 22-285: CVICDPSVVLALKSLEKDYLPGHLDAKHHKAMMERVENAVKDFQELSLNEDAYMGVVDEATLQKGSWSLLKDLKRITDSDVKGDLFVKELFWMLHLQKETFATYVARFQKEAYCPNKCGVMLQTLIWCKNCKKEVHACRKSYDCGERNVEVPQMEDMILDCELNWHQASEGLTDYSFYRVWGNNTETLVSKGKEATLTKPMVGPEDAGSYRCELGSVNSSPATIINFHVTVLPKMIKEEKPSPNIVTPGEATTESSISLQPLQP
UniProt A6ND01, residues 20-231: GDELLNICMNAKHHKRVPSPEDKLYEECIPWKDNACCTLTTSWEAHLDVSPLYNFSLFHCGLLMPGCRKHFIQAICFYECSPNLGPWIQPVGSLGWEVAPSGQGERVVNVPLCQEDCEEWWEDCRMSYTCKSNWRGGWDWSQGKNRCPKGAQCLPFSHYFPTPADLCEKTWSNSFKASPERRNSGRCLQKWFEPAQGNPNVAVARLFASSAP

Legend:
[1] = molecular target: T1, FCRL3-TM-GFP: entire ectodomain of human FCRL3 with the rat CD200R transmembrane domain and cytoplasmic EGFP, on HEK293 cells (human) (UniProt Q96P31); test: cell-based binding assay (fluorescent avid probe on transfected cells, confocal microscopy); biotinylated monomeric IZUMO1 clustered around a streptavidin-phycoerythrin conjugate, incubated 1 hour at 37°C with transfected HEK293 cells showing the ectodomain as TM-GFP fusion; washed with DPBS, fixed with 4% formaldehyde
T1 sequence: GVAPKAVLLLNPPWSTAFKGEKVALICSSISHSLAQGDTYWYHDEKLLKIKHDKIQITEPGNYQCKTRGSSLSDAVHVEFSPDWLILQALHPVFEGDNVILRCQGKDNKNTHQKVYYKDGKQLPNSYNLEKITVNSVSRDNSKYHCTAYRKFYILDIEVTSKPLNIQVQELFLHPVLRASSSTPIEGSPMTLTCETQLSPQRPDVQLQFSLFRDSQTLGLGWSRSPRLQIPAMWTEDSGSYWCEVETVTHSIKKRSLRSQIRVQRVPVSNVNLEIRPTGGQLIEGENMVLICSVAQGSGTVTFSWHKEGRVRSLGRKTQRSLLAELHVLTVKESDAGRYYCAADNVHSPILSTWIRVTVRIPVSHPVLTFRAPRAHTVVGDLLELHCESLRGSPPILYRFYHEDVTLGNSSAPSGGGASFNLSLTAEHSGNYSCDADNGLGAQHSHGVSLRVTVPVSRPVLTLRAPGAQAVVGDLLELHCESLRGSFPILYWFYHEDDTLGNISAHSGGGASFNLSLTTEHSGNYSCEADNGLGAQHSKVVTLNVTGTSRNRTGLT

[2] = molecular target: T1, FCRL3-TM-GFP: entire ectodomain of human FCRL3 with the rat CD200R transmembrane domain and cytoplasmic EGFP, on HEK293 cells (human); test: cell-based binding assay (avid probe on transfected cells, confocal microscopy); JUNO ectodomain as a pentameric binding probe presented to transfected HEK293 cells showing the ectodomain as TM-GFP fusion
[3] = molecular target: T2, human FCRL3 (MAIA) entire ectodomain, biotinylated, rat Cd4 domains 3 and 4 tagged (bait construct) (human) (UniProt Q96P31); test: AVEXIS (avidity-based extracellular interaction screening); biotinylated baits captured on streptavidin-coated 96-well plates; highly avid beta-lactamase-tagged preys (normalised conditioned medium) incubated 1 hour at room temperature; washes in PBS-T and PBS; nitrocefin hydrolysis read at 485 nm
T2 sequence (chain, enzymatically biotinylated (BirA) on the biotinylation target sequence): T1 sequence

binding [1] | binding [2] | binding [3] | Substance
no binding | – | – | human IZUMO1 entire ectodomain, biotinylated, rat Cd4 domains 3 and 4 tagged (bait construct) (from UniProt Q8IYV9 22-285) (domain or fragment)
– | no binding | no binding | human JUNO entire ectodomain, pentameric beta-lactamase-tagged prey (from UniProt A6ND01 20-231) (domain or fragment)
– | – | no binding | human IZUMO1 entire ectodomain, pentameric beta-lactamase-tagged prey (from UniProt Q8IYV9 22-285) (domain or fragment)
